PubChem BioAssay AID1159617, Peter MacCallum Cancer Centre, 2016
The whole screen tested 153 reagents; below is a random part of them. 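Values are robust z-scores scaled across the full screen; higher values mean larger or longer cells.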 Not all columns of the deposit are shown. Not stated in the record: the time to read-out.

Aim: 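Follow-up of migration screen hits for effects on endothelial cell form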 (tertiary re-screen of migration hits)
System: human HMBEC blood microvascular and HDLEC lymphatic endothelial cells
Knock-down reagent: siRNA pool against human genes, 40 nM
Detection: 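Automated imaging of phalloidin actin stain giving per-cell area and length; replicate means turned into robust z-scores relative to all screened samples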
Reading the numbers: cell area z-score, HMBEC and cell area z-score, HDLEC: higher = larger cells

gene | cell area z-score, HMBEC | cell area z-score, HDLEC
PMVK (phosphomevalonate kinase) | 5.95 | 0.81
UHMK1 (U2AF homology motif kinase 1) | -1.59 | -1.66
SF3B1 (splicing factor 3b subunit 1) | -1.12 | -0.49
STK38 (serine/threonine kinase 38) | 0.43 | -0.09
CKM (creatine kinase, M-type) | -0.65 | -0.3
COPB2 (coat protein complex I subunit beta 2) | 0.81 | -0.1
ETNK2 (ethanolamine kinase 2) | 0.69 | 0.83
FLCN (folliculin) | 1.75 | 0.66
CMTM8 (CKLF like MARVEL transmembrane domain containing 8) | 0.55 | -1.17
FBXW11 (F-box and WD repeat domain containing 11) | -0.22 | 0.38
PKN2 (protein kinase N2) | -0.35 | -0.01
PI4KB (phosphatidylinositol 4-kinase beta) | -0.57 | -0.75
UBE2O (ubiquitin conjugating enzyme E2 O) | 0.03 | -1.34
CASK (calcium/calmodulin dependent serine protein kinase) | -0.49 | -0.43
GPR84 (G protein-coupled receptor 84) | -0.12 | -0.29
MICAL2 | 0.29 | -0.75
ABCC3 (ATP binding cassette subfamily C member 3) | 0.36 | -0.91
TUBA1B (tubulin alpha 1b) | -0.44 | 0.59
FLG2 (filaggrin 2) | 1.79 | 1.98
TPST2 (tyrosylprotein sulfotransferase 2) | 1.71 | 0.5
NXF1 (nuclear RNA export factor 1) | -0.37 | 0.37
SGK3 (serum/glucocorticoid regulated kinase family member 3) | 1.79 | -0.74
STK36 (serine/threonine kinase 36) | -0.41 | 0.86
KANSL1 (KAT8 regulatory NSL complex subunit 1) | 1.2 | 1.43
CBR1 (carbonyl reductase 1) | 0.77 | -0.48
RNASE7 (ribonuclease A family member 7) | -0.14 | 0.04
FLT3 (fms related receptor tyrosine kinase 3) | 0.31 | -0.49
SETD2 (SET domain containing 2, histone lysine methyltransferase) | 1.12 | 2.11
ACP2 (acid phosphatase 2, lysosomal) | 1.03 | 0.3
PDGFRB (platelet derived growth factor receptor beta) | 0.85 | -0.42
KCNQ2 (potassium voltage-gated channel subfamily Q member 2) | -1.08 | -0.08
TNFRSF8 (TNF receptor superfamily member 8) | 0.03 | 0.89
SCGB1C1 (secretoglobin family 1C member 1) | -0.44 | -0.72
FBXO4 (F-box protein 4) | -0.86 | -0.39
CRCT1 (cysteine rich C-terminal 1) | -0.35 | -0.98
STYK1 (STY kinase 1) | -0.46 | -1.43
FBXO7 (F-box protein 7) | 0.81 | 0.45
LYPLA2 (lysophospholipase 2) | -2.22 | -2.23
RELT (RELT TNF receptor) | -0.95 | -0.47
TMEM121B (transmembrane protein 121B) | 0.24 | 1.19
ITFG2 (integrin alpha FG-GAP repeat containing 2) | 0.06 | 0.92
SLC22A25 | 0.31 | -0.35
PPP6R1 (protein phosphatase 6 regulatory subunit 1) | 0.26 | -0.52
TFAP2C (transcription factor AP-2 gamma) | 1.52 | 2.92
RAD21 (RAD21 cohesin complex component) | -0.3 | -0.65
MTARC1 (mitochondrial amidoxime reducing component 1) | -1.17 | 0.11
STRC (stereocilin) | 0.04 | 0.62
TTLL3 (tubulin tyrosine ligase like 3) | -0.07 | -0.37
PLB1 (phospholipase B1) | 1.03 | 1.4
ELP2 (elongator acetyltransferase complex subunit 2) | -0.3 | -0.62
GNAS (GNAS complex locus) | 0.25 | -0.5
NUDT2 (nudix hydrolase 2) | -0.45 | -0.71
OR10H4 (olfactory receptor family 10 subfamily H member 4) | -0.4 | -1.12
GBA1 (glucosylceramidase beta 1) | -1.17 | 0.01
S1PR1 (sphingosine-1-phosphate receptor 1) | 1.83 | 1.89
SYNGAP1 (synaptic Ras GTPase activating protein 1) | -1.29 | -1.73
PLPP1 (phospholipid phosphatase 1) | -1.22 | -1.59
